Measured values: PubChem BioAssay AID2685 (National Center for Advancing Translational Sciences (NCATS), 2010)
About 2,100 (0.66%) of roughly 320,000 compounds were called active. The shares of active, inactive and inconclusive entries below differ from those in the screen. Calls come from the whole dose curve; as a rule, active = well fitted inhibition curve with a large enough effect in the signal ratio, with a control signal flat (not every such curve was filed as active); inconclusive = small, poorly fitted or top-dose-only effect, or effect the other way, or a change in a side signal; inactive = flat fitted curve, though single readings scatter; the % refers to the signal ratio. Potencies of inconclusive entries are doubtful fits and often do not repeat.

Assay: qHTS Assay for Lipid Storage Modulators in Drosophila S3 Cells
Settings: BODIPY lipid droplet fluorescence, 18-24 h, cells fed with added oleic acid; lipid storage change, negative = inhibition: at 46.1 µM (top of the series) unless noted
Procedure, shortened: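 Drosophila S3 cells got compounds at several concentrations plus oleic acid (400 uM solution). Laser-scanning cytometry with 488 nm excitation read lipid droplets at 500-530 nm and cells at 575-640 nm. Percent activity was relative to 20 uM Triacsin C.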
% is set by controls: 0 for no effect and ±100 for the full control effect; potency is the fitted concentration of half-maximal effect.

| Compound | lipid storage change, negative = inhibition | Potency | outcome |
| --- | --- | --- | --- |
| COc1cc(CN2CCNC(=O)C2CC(=O)NCCC2=CCCCC2)cc(OC)c1 (configuration not stated) | inconclusive: -9.78% |  |  |
| CCCc1ccc(OCC(O)CN2CCN(CCO)CC2)cc1 (configuration not stated) | inconclusive: 123% |  |  |
| CCn1nc2cc(C(=O)NCCc3cccs3)ccc2c1OC | inconclusive: -23.6% |  |  |
| O=C(N/N=C/c1ccoc1)c1ccccc1 | inconclusive: -100% |  |  |
| COc1ccc(C(=O)NCCNc2ccc([N+](=O)[O-])cn2)cc1 | inconclusive: 72.8% |  |  |
| Cc1cc(-c2cccs2)c(C#N)c(=S)[nH]1 | inconclusive: 2.75% |  |  |
| COc1ccc(CC(NC(C)=O)C(=O)NC2CCN(C(=O)c3cccc(Cl)c3)CC2)cc1OC (configuration not stated) | inactive: -3.02% |  |  |
| CCCCc1nn2c(N)c(/C=C3\C=Nc4ccccc43)c(=O)nc2s1 | inconclusive: -15.5% |  |  |
| COc1ccc(CNC(=O)C2=CC(c3ccc(OC)cc3)=NS(=O)(=O)N2C)cc1 | inactive: -22.8% |  |  |
| COc1ccc(S(=O)(=O)N(C(=O)c2ccco2)c2cc3sc(=O)oc3c3ccccc23)cc1 |  | inconclusive: 29.1 µM [falling, single point] |  |
| CCC1=NN2C(=N)/C(=C\c3ccc(OCCOc4ccccc4OC)cc3)C(=O)N=C2S1 |  | inconclusive: 29.1 µM [activator, single point] |  |
| Cc1ccc(CCNS(=O)(=O)c2cc3c(cc2Cl)NC(=O)CO3)cc1 |  | inconclusive: 0.103 µM [activator, partial curve] |  |
| O=C(COC(=O)/C=C/c1ccccc1)NCCC1=CCCCC1 | inconclusive: 9.78% |  |  |
| O=C(OCc1ccco1)c1ccc(S(=O)(=O)N2CCCCC2)cc1 | inconclusive: 9.95% |  |  |
| COc1ccc(-n2c(N)c(Br)c(=O)[nH]c2=O)cc1 | inconclusive: -14% |  |  |
| COc1cccc(-c2ccc3ncnc(NCc4cc(C)cs4)c3c2)c1 | inconclusive: 8.92% |  |  |
| CCOc1ccccc1N(CC(=O)NCCSc1ccccn1)S(=O)(=O)c1ccc(C)cc1 | inconclusive: 12.4% |  |  |
| Cc1nnc2c(NCCC(C)C)nc3ccccc3n12 | inconclusive: 50.1% |  |  |
| O=c1cc(N2CCCCC2)c(-c2ccccc2)nn1Cc1ccc(Cl)cc1Cl |  | inconclusive: 20.6 µM [falling, single point] |  |
| CCCc1nn(C)c(C(=O)Nc2cccc3ccccc23)c1Cl | inconclusive: 17.5% |  |  |
| CCCN(CCC)CCCn1c(=O)[nH]c2ccccc21 | inconclusive: -14% |  |  |

| Compound | lipid storage change, negative = inhibition | Potency | outcome |
| --- | --- | --- | --- |
| CCC(=O)NCCc1nc2ccccc2n1CC | inconclusive: -1.63% |  |  |
| CCOc1cc(/C=C2\SC(=Nc3ccc(F)cc3)N(c3ccc(F)cc3)C2=O)ccc1OCC(=O)O | inactive: 11.8% |  |  |
| COc1cc2[nH]c(=S)n(C3CCCC3)c(=O)c2cc1OC |  | inconclusive: 1.84 µM [activator, partial curve, poor fit] |  |
| CC(C)(C)c1ccc(Cn2nnc3c(=O)[nH]c(C4CCCN(C(=O)Cc5cccs5)C4)nc32)cc1 (configuration not stated) | inconclusive: 15.3% |  |  |
| COc1ccc2nc(NNC(=O)COc3ccccc3)sc2c1 | inconclusive: 4.1% [at 9.22 µM] |  |  |
| Cc1ccc(C(=O)NCC(=O)N2CCN(c3ccccc3)CC2)cc1 |  | inconclusive: 25.9 µM [activator, single point] |  |
| COc1ccc(Cn2c3nc4ccccc4nc3c3c(=O)n(Cc4ccco4)c(C)nc32)cc1 | inconclusive: -173% |  |  |
| CC(=O)C1=C(C)OC2(O)c3ccccc3C(=O)C12O (configuration not stated) | inconclusive: 25.5% |  |  |
| CC(OC(=O)c1ccc2c(=O)n3c(nc2c1)CCC3)C(=O)Nc1ccc(C(N)=O)cc1 (configuration not stated) | inconclusive: 12.6% |  |  |
| CC(C)CCNC(=O)C(CC(C)C)N(Cc1ccc2c(c1)OCO2)C(=O)c1snc(C(N)=O)c1N (configuration not stated) |  | inconclusive: 29.1 µM [cytotoxic, single point] |  |
| O=C(O)CSc1cccc2cccnc12 | inconclusive: 66.9% |  |  |
| COc1ccc(C(=O)N/C(=C\c2cn(C)c3ccccc23)C(=O)N2CCN(C)CC2)cc1OC |  |  | inactive [at 46.1 µM] |
| Nc1ccc(Br)c[n+]1Cc1cccc2cccnc12 | inconclusive: 13.1% |  |  |
| Cc1ccc(S(=O)(=O)NNC(=O)CCC(=O)Nc2ccccc2)cc1 | inactive: -16.6% |  |  |
| CCNC(=O)CN(c1ccc(Oc2ccccc2)cc1)S(=O)(=O)c1ccccc1 | inconclusive: -41.3% |  |  |
| O=C(CSc1ncnc2sccc12)Nc1ccc(S(=O)(=O)N2CCOCC2)cc1 |  | active: 14.6 µM |  |
| Cc1cccc(S(=O)(=O)Nc2ccc(-c3nc4ccc(C)cc4s3)cc2)c1 |  | inconclusive: 29.1 µM [cytotoxic, single point] |  |
| CC(=O)N(CCCN(C)C)CCC(C)CCC=C(C)C (configuration not stated) | inconclusive: 4.69% |  |  |
| CCCCNC(=O)[C@@](CC)(ONc1ccccc1C(F)(F)F)c1cccc2ccccc12 | inconclusive: 8.94% |  |  |
| CN(CCCNC(=O)C1CCC(=O)N1Cc1ccc(F)cc1)c1ccccc1 (configuration not stated) | inconclusive: 47.7% [activator] |  |  |
| O=C(Cc1ccccc1F)Nc1ccc(S(=O)(=O)Nc2ncccn2)cc1 |  | active: 0.146 µM |  |

| Compound | lipid storage change, negative = inhibition | Potency | outcome |
| --- | --- | --- | --- |
| Cc1ccc(NC(=O)CSc2nnc(-c3cccs3)n2Cc2ccco2)cc1 | inconclusive: -45.2% |  |  |
| CN(Cc1cn(C)c2ccccc12)C(=S)Nc1cc(F)cc(F)c1 | inconclusive: 21.1% |  |  |
| COc1cc2c(cc1OC)C(COc1ccccc1OC)N(C(C)=O)CC2 (configuration not stated) | inconclusive: 35.1% |  |  |
| COc1ccccc1CNc1ncnc2cc(Cl)ccc12 | inconclusive: -15.1% |  |  |
| Cn1c(C(C#N)C(=O)c2ccco2)nc2ccccc21 (configuration not stated) |  | inconclusive: 32.6 µM [activator, single point] |  |
| CCOP(=O)(OCC)C(NC(=O)Nc1ccc(C)cc1)C(N)=O (configuration not stated) | inconclusive: 3.45% |  |  |
| Cc1ccc(C(=O)C2=C(O)C(=O)N(CC3CCCO3)C2c2ccccc2F)o1 (configuration not stated) | inconclusive: 230% |  |  |
| C(=N\Nc1ccccn1)/c1ccc(N2CCOCC2)cc1 | inconclusive: 16.6% [at 9.22 µM] |  |  |
| CCc1ccc(Nc2cc(C)nc3nc(C)nn23)cc1 | inconclusive: 5.04% |  |  |
| Cc1ccc(C)c(N2CC(C(=O)Nc3nccs3)CC2=O)c1 (configuration not stated) | inconclusive: -6.9% |  |  |
| Cc1nc2ccccc2nc(C)c1=NOCC(=O)N(c1ccccc1)C(C)C | inconclusive: -56.4% |  |  |
| CCc1noc(C)c1C(=O)OC(C)C(=O)c1c(C)[nH]c2ccccc12 (configuration not stated) | inconclusive: -32.4% |  |  |
| CCOc1ccc(CCNC(=O)CSc2ncn[nH]2)cc1OCC |  | inconclusive: 20.6 µM [falling, single point] |  |
| O=C(O)c1sc2cc(C(F)(F)F)cnc2c1-c1cccs1 | inconclusive: -38.3% |  |  |
| CCOc1cc(C(c2c(C)[nH][nH]c2=O)c2c(C)[nH][nH]c2=O)cc([N+](=O)[O-])c1O | inconclusive: -10.1% |  |  |
| CC(Sc1nnc(Cc2ccccc2)n1C)C(=O)NC1CC1 (configuration not stated) | inconclusive: 10.3% |  |  |
| Cc1ccccc1CN1CCN(Cc2ccc3cccc(F)c3n2)CC1CCO (configuration not stated) | inconclusive: 8.98% |  |  |
| Cc1ccc(C(=O)NC2CCN(S(=O)(=O)c3ccc(F)cc3)CC2)cc1 |  | inconclusive: 0.231 µM [activator, full curve] |  |
| Cc1ccc(C(=O)CSc2nnc3c4ccccc4nc(Cc4ccccc4)n23)cc1 | inconclusive: 21.5% |  |  |
| O=[N+]([O-])c1ccc(/C=N/NC(=S)Nc2ccccc2)o1 |  | inconclusive: 23.1 µM [falling, partial curve] |  |
| O=C1CCCN1CCCNc1nc2c(S(=O)(=O)c3ccc(Br)cc3)nnn2c2ccccc12 |  | inconclusive: 3.26 µM [falling, full curve, poor fit] |  |

As entered above:
`O=C1CCCN1CCCNc1nc2c(S(=O)(=O)c3ccc(Br)cc3)nnn2c2ccccc12` | Potency: inconclusive: 3.26 µM [falling, full curve, poor fit]
`CN(Cc1cn(C)c2ccccc12)C(=S)Nc1cc(F)cc(F)c1` | lipid storage change, negative = inhibition: inconclusive: 21.1%
`Cc1ccc(C(=O)CSc2nnc3c4ccccc4nc(Cc4ccccc4)n23)cc1` | lipid storage change, negative = inhibition: inconclusive: 21.5%

(more compounds)

| Compound | lipid storage change, negative = inhibition | Potency | outcome |
| --- | --- | --- | --- |
| O=C1CC(c2cccc(Cl)c2)C(n2cncn2)C(=O)C1C1NCCc2ccccc21 (configuration not stated) | inconclusive: -23.3% |  |  |
| CCC1CCCCN1c1nc(-c2ccncc2)nc2ccccc12 (configuration not stated) | inconclusive: 302% |  |  |
| CSc1nc2sc3c(c2c2nnnn12)CCC3 |  | inconclusive: 6.51 µM [activator, partial curve] |  |
| CN(C)c1ccc(/C=N/n2c(-c3ccccc3Br)n[nH]c2=S)cc1 | inconclusive: 7.92% |  |  |
| CC(C)N(C(=O)CSc1nnc(NC(=O)c2cccs2)s1)C(C)C | inactive: -9.8% |  |  |
| O=C(COC(=O)CCC1CCCC1)Nc1cc(S(=O)(=O)N2CCOCC2)ccc1Cl | inconclusive |  |  |
| COc1cccc(NC(=O)C2CCN(S(C)(=O)=O)CC2)c1 |  | inconclusive: 4.61 µM [falling, full curve] |  |
| Cc1ccc(C(=O)N2CCN(c3ncccn3)CC2)cc1 | inconclusive: 33.9% |  |  |
| COCC(=O)NNS(=O)(=O)c1ccccc1[N+](=O)[O-] |  | inconclusive: 13 µM [falling, partial curve, poor fit] |  |
| COc1cc2c(cc1OC)CN(Cc1cccs1)CC2 | inconclusive: 39.1% |  |  |
| CCOc1ccc(NC(=O)NCC2CCN(c3ccc(OC)cc3)C2)cc1 (configuration not stated) | inconclusive: 7.69% |  |  |
| Cc1ccc2oc(-c3ccc(C)c(NC(=S)NC(=O)c4cccs4)c3)nc2c1 | inconclusive: -25.9% |  |  |
| O=c1c(Cc2ccc(Cl)cc2)c(O)ccn1Cc1cccc(Cl)c1 | inconclusive: -30.1% |  |  |
| CCN(CC(=O)Nc1ccc(NC(C)=O)cc1)Cc1c(O)ccc2cc(Br)ccc12 | inconclusive: 63.3% |  |  |
| COc1ccc(N/C=C2\CCc3ccccc3C2=O)cc1 | inconclusive: -22.4% |  |  |
| CCN(CCO)C(=S)Nc1cc(S(=O)(=O)N(C)C)ccc1C | inconclusive: -13.1% |  |  |
| Cn1c(=O)c2cc(S(=O)(=O)NC(C(=O)N3CCCCCC3)c3ccccc3)ccc2n(C)c1=O (configuration not stated) | inconclusive: -24.1% |  |  |
| CCC(c1nnnn1CCOC)N1CCN(C(=O)c2ccco2)CC1 (configuration not stated) | inconclusive: 13% |  |  |
| O=C(Nc1ccc(F)c([N+](=O)[O-])c1)c1cccs1 |  | inconclusive: 1.3 µM [falling, full curve, poor fit] |  |
